1 molecule from paper doi:10.1101/2023.01.18.523235 can be followed below.

By UniProt entry, the sequences of proteins in these tests, tags left out. Where a name states a change or a piece, a line headed by the entry shows the natural chain unless it says otherwise.
UniProt Q96RY7, whole entry: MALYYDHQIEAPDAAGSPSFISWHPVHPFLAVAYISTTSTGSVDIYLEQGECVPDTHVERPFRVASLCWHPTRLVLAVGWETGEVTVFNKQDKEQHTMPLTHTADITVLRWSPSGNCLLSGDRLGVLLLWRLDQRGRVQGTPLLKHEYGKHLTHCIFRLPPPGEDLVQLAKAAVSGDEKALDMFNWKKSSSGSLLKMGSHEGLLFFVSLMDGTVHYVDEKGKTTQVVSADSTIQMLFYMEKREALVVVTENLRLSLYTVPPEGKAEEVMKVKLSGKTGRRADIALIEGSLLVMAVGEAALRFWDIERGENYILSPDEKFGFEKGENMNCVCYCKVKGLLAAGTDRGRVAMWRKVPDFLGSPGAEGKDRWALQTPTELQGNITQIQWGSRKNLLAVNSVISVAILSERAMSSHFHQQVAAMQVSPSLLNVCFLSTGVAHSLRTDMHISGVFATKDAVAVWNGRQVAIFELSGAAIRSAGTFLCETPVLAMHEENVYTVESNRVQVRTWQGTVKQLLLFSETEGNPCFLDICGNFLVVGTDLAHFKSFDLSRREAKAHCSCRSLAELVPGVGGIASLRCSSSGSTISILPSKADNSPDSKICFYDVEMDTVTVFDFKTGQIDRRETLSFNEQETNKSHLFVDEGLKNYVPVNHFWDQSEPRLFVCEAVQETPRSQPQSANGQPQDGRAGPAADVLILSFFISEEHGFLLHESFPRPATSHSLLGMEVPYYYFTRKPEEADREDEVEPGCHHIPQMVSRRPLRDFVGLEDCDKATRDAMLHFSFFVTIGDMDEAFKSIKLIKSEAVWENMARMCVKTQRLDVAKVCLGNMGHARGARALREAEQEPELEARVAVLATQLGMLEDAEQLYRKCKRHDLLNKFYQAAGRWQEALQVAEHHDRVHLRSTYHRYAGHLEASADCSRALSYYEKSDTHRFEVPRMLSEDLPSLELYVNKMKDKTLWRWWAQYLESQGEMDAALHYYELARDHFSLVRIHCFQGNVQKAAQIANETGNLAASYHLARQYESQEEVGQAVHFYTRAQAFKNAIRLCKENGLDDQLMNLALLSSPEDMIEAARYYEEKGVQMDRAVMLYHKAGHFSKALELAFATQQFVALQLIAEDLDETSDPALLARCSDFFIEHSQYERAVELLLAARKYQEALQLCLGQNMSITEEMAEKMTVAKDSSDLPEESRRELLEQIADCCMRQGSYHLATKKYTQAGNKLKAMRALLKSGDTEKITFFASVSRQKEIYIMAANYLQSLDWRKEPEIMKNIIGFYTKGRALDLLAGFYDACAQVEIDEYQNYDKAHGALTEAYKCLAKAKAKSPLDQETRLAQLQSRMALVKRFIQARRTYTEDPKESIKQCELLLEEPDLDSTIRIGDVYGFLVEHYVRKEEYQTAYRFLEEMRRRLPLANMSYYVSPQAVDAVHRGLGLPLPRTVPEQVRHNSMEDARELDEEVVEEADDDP

These are yes or no findings as the source states them, for the method shown. In cells and extracts the contact can be indirect. Some entries that bind do so weakly or less than the wild type. Tags and fused reporters may be left off the sequences shown.

Some targets named below: IFT140 V292M (human) (UniProt Q96RY7); IFT140 E664K (human) (UniProt Q96RY7); IFT140 I233M (human) (UniProt Q96RY7); IFT140 S939P (human) (UniProt Q96RY7); IFT140 A341T (human) (UniProt Q96RY7); IFT140 T484M (human) (UniProt Q96RY7); IFT140 C663W (human) (UniProt Q96RY7); IFT140 G140R (human) (UniProt Q96RY7); IFT140 V108M (human) (UniProt Q96RY7); IFT140 E267G (human) (UniProt Q96RY7); IFT140 wildtype (human) (UniProt Q96RY7); IFT140 C333Y (human) (UniProt Q96RY7).

Common to all, as to assay: co-IP

B1: (N)HA-TULP3 (protein, UniProt O75386 1-442)
chain: MEASRCRLSPSGDSVFHEEMMKMRQAKLDYQRLLLEKRQRKKRLEPFMVQPNPEARLRRAKPRASDEQTPLVNCHTPHSNVILHGIDGPAAVLKPDEVHAPSVSSSVVEEDAENTVDTASKPGLQERLQKHDISESVNFDEETDGISQSACLERPNSASSQNSTDTGTSGSATAAQPADNLLGDIDDLEDFVYSPAPQGVTVRCRIIRDKRGMDRGLFPTYYMYLEKEENQKIFLLAARKRKKSKTANYLISIDPVDLSREGESYVGKLRSNLMGTKFTVYDRGICPMKGRGLVGAAHTRQELAAISYETNVLGFKGPRKMSVIIPGMTLNHKQIPYQPQNNHDSLLSRWQNRTMENLVELHNKAPVWNSDTQSYVLNFRGRVTQASVKNFQIVHKNDPDYIVMQFGRVADDVFTLDYNYPLCAVQAFGIGLSSFDSKLACE
On to B1, for which the binding entry in the assay with IFT140 V292M (human) is given as “binds”; with IFT140 E664K (human), “binds weakly”; in the assay with IFT140 I233M (human), “binds”; in the assay with IFT140 S939P (human), “binds”; with IFT140 A341T (human), “binds”; with IFT140 T484M (human), “binds weakly”. The binding entry in the assay with IFT140 C663W (human), with IFT140 G140R (human), in the assay with IFT140 V108M (human), in the assay with IFT140 E267G (human), with IFT140 wildtype (human) and with IFT140 C333Y (human) was “binds” in each case.
